Results deposited as PubChem BioAssay AID1159578 (Peter MacCallum Cancer Centre, 2015)
In all, the deposit lists about 18,000 reagents; shown is a part drawn at random. About 1,030 of all reagents (5.7%) count as active. 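Inactive calls also include pools with fewer than 3300 nuclei, whose migration was not assessed.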 Raw values vary from plate to plate and are shown uncorrected. Reagent sequences are not shown.

Assay: 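siRNA pools altering how lymphatic endothelial cells close a scratch wound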 (primary screen)
Cell system: human lymphatic endothelial cells
Knock-down reagent: siRNA pool against human genes, 40 nM
Timing: 48 h after transfection
Measured: 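Cells stained with dye and imaged after a scratch; covered wound area and nuclei counted, duplicates averaged, migration set against mock wells and turned into a robust z-score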
Scale: migration robust z-score: higher = faster migration into the scratch; migration relative to mock: higher = more scratch area covered than mock; nuclei per well: higher = more cells in the well
Rule for the call: 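Pools averaging fewer than 3300 nuclei are never called; remaining pools count as changed when migration robust z lies outside -2 to 2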
Meaning of the calls: active = migration changed; inactive = no migration change, or too few cells

| gene | migration robust z-score | migration class with cell-count check | migration relative to mock | nuclei per well, duplicate mean | outcome |
| --- | --- | --- | --- | --- | --- |
| NEUROG2 | 1.15 | migration z between -2 and 2; enough cells | 1.19 | 7480 | inactive |
| RPS15A | -3.36 | migration z below -2; enough cells | 0.02 | 3308 | active |
| SLC51A | -0.01 | migration z between -2 and 2; enough cells | 0.88 | 4994 | inactive |
| KLC1 | -0.68 | migration z between -2 and 2; enough cells | 0.68 | 4641 | inactive |
| BCL2L13 | -0.57 | migration z between -2 and 2; enough cells | 0.7 | 4968 | inactive |
| ZMAT4 | 0.04 | migration z between -2 and 2; enough cells | 0.9 | 6616 | inactive |
| PES1 | 1.23 | migration z between -2 and 2; enough cells | 1.2 | 5142 | inactive |
| HINT1 | -0.8 | migration z between -2 and 2; enough cells | 0.65 | 5754 | inactive |
| EMP3 | -0.3 | migration z between -2 and 2; enough cells | 0.81 | 5195 | inactive |
| GRHPR | -0.8 | migration z between -2 and 2; enough cells | 0.68 | 6526 | inactive |
| H3C11 | -0.38 | migration z between -2 and 2; enough cells | 0.79 | 4530 | inactive |
| ENOSF1 | -0.43 | migration z between -2 and 2; enough cells | 0.78 | 6628 | inactive |
| ANKRD42 | -1.23 | migration z between -2 and 2; enough cells | 0.57 | 5128 | inactive |
| FOXD2 | -0.26 | migration z between -2 and 2; enough cells | 0.76 | 4420 | inactive |
| GRIN2B | 1.12 | migration z between -2 and 2; enough cells | 1.02 | 4834 | inactive |
| SAFB2 | -0.12 | migration z between -2 and 2; enough cells | 0.85 | 5126 | inactive |
| SNUPN | 1.25 | migration z between -2 and 2; enough cells | 1.04 | 4636 | inactive |
| PNMA8A | -0.86 | migration z between -2 and 2; enough cells | 0.66 | 5768 | inactive |
| GCG | 0.58 | migration z between -2 and 2; enough cells | 1.04 | 5429 | inactive |
| SLC46A2 | -0.24 | migration z between -2 and 2; enough cells | 0.76 | 5325 | inactive |
| OR2J3 | -0.86 | migration z between -2 and 2; enough cells | 0.66 | 4551 | inactive |
| EVA1B | -4.04 | migration z below -2; enough cells | -0.16 | 6370 | active |

Look-ups from the entries so far.
Value for SLC46A2 in “outcome”: inactive
Entry of PES1 under “migration relative to mock”: 1.2
For “nuclei per well, duplicate mean”, GRHPR reads 6526
SLC51A, outcome = inactive
FOXD2, nuclei per well, duplicate mean: 4420
H3C11, migration relative to mock → 0.79

Further results follow:
| gene | migration robust z-score | migration class with cell-count check | migration relative to mock | nuclei per well, duplicate mean | outcome |
| --- | --- | --- | --- | --- | --- |
| SH3RF3 | -1.48 | migration z between -2 and 2; enough cells | 0.52 | 5302 | inactive |
| CNOT7 | 0.42 | migration z between -2 and 2; enough cells | 0.88 | 5644 | inactive |
| SLC45A4 | 0.57 | migration z between -2 and 2; enough cells | 1.03 | 6071 | inactive |
| CLIC5 | -0.7 | migration z between -2 and 2; enough cells | 0.67 | 4068 | inactive |
| ZDHHC17 | 1.44 | migration z between -2 and 2; enough cells | 1.25 | 6466 | inactive |
| GIGYF1 | -0.15 | migration z between -2 and 2; enough cells | 0.84 | 5816 | inactive |
| HTATSF1 | -0.68 | migration z between -2 and 2; enough cells | 0.68 | 5774 | inactive |
| HDAC8 | 0.25 | migration z between -2 and 2; enough cells | 0.95 | 7334 | inactive |
| ZNF284 | 0.76 | migration z between -2 and 2; enough cells | 1.08 | 4838 | inactive |
| DHTKD1 | -0.18 | migration z between -2 and 2; enough cells | 0.77 | 6956 | inactive |
| NR5A1 | -1.12 | migration z between -2 and 2; enough cells | 0.59 | 3687 | inactive |
| FAM193A | 0.17 | migration z between -2 and 2; enough cells | 0.93 | 4616 | inactive |
| NANOG | -0.31 | migration z between -2 and 2; enough cells | 0.74 | 5257 | inactive |
| ACTN3 | -0.84 | migration z between -2 and 2; enough cells | 0.66 | 5372 | inactive |
| SLC30A10 | -0.05 | migration z between -2 and 2; enough cells | 0.8 | 5226 | inactive |
| LIMK2 | -0.05 | migration z between -2 and 2; enough cells | 0.8 | 6460 | inactive |
| TMEM89 | -1.26 | migration z between -2 and 2; enough cells | 0.56 | 5306 | inactive |
